*: point of attachment. Boc = CC(C)(C)OC(=O)*; tBu = CC(C)(C)*

The values that follow come from patent publication US3956260 (dated 1976).

This data set in a line: general procedure: solution-phase peptide synthesis; dicyclohexylcarbodiimide/N-hydroxysuccinimide; p-nitrophenyl esters; azide metho. Particulars: of theory.

Turning to “Boc-CS(tBu)NLS(tBu)T(tBu)CVL-OH (cysteine pairing not given here)”, under “oxidative folding step”, the oxidative folding yield is on record as 83%.

In turn, Z-Asn-Leu-Asn-Asn-Phe-NH-NH-BOC yielded a step yield (coupling step) of 88%.
